Measured values: paper PMC7522246
These are yes or no findings as the source states them, for the method shown. In cells and extracts the contact can be indirect. Some binding calls cover weakened binding; strength is not graded here.

Amino acid sequences for entries named in this document (tags omitted).
UniProt O14744: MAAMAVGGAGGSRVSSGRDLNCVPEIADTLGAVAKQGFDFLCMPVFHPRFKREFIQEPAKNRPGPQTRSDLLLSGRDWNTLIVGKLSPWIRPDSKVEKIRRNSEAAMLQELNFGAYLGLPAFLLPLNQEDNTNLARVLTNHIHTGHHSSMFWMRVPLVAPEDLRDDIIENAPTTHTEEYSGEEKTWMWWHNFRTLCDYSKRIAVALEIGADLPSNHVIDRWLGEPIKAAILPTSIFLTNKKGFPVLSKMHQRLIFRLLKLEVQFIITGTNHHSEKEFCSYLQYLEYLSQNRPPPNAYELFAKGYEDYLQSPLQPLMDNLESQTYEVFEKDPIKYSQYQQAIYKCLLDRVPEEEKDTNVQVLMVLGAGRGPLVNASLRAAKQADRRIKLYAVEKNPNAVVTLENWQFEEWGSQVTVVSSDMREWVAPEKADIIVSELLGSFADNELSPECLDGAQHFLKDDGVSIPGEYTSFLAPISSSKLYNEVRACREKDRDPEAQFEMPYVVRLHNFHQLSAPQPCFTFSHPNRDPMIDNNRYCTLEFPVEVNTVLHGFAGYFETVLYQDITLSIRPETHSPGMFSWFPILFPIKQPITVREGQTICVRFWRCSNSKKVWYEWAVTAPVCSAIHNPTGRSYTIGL
UniProt P67809: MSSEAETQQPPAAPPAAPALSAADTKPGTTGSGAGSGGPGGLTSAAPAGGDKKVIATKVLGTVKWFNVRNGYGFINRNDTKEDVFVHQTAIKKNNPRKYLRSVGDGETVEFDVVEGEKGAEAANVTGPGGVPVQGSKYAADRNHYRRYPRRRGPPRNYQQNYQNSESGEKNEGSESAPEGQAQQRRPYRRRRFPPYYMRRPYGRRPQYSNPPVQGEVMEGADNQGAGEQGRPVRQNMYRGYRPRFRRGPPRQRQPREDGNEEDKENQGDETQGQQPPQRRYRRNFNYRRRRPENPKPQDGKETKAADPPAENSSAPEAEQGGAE

Molecular target: Flag-PRMT5 (protein arginine methyltransferase 5) (UniProt O14744)
Experiment: co-IP; HEK293 and HT29 stable lines co-expressing Myc-YBX1 and Flag-PRMT5, untreated or IL-1β stimulated; lysis in 1% Triton X-100, 50 mM Tris-HCl pH 7.4, 150 mM NaCl, 1 mM EDTA; beads at 4 °C overnight; blots with anti-Myc and anti-Flag

binding: binds
Substance: Myc-tagged WT-YBX1 (from UniProt P67809 1-324)
